The list does not hold the whole screen: it is rich in T/C values a quarter to a half above the control, in often repeated tests (any T/C) and in doses without a T/C. Other doses and runs of a compound stand elsewhere. T/C is the treated group as % of the vehicle group. Some doses have a count of surviving animals in place of a T/C: the source files T/C as zero there, which appears to mark a toxic dose or a test without result, not a measured value. Some doses without a T/C left all or most animals alive at the check, yet need not have been tolerated: the source hardly ever lists a survival T/C far under the control, and the zero likely stands for such cases as well. Survivors were counted at the toxicity check, usually on the fifth day, unless a day is given; later deaths do not show. Schedule codes are those of the source, read here as Q, the interval in days (D) or hours (H), X, the number of doses. Some entries hold several experiments; the results are listed from low to high. Where survival is the endpoint, this PubChem deposit counts one and a half times the control or more as active, and values a quarter to a half above the control carry no call in these data; other NCI protocols may use other cut-offs. Some T/C values are followed by the survivors on the day toxicity was checked, most often the fifth; without a count, all were alive then.
Tested on: L1210 leukemia ip in BDF1 mice, survival T/C
Test: NCI In Vivo Anticancer Drug Screen. Data for tumor model L1210 Leukemia (intraperitoneal) in B6D2F1 (BDF1) mice
Details: higher T/C = longer survival
[1] = T/C endpoint: mean survival time, dose: 50.0 mg/kg/injection, schedule: Q01DX009 (ip), vehicle: saline

**Q.** What does the source list for COC(=O)C[C@](O)(CCCC(C)(C)O)C(=O)O[C@@H]1C(OC)=C[C@]23CCCN2CCc2cc4c(cc2[C@H]13)OCO4?
**A.** T/C (T/C endpoint: mean survival time, dose: 0.5 mg/kg/injection, schedule: Q01DX009 (ip), vehicle: saline): 126 % of control; T/C (T/C endpoint: mean survival time, dose: 0.5 mg/kg/injection, schedule: Q01DX009 (ip), vehicle: water): 116, 120, 123, 126 % of control; T/C (T/C endpoint: mean survival time, dose: 1.0 mg/kg/injection, schedule: Q01DX009 (ip), vehicle: acid diluted with saline): 130 % of control; T/C (T/C endpoint: mean survival time, dose: 1.0 mg/kg/injection, schedule: Q01DX009 (ip), vehicle: saline): 134 % of control; T/C (T/C endpoint: mean survival time, dose: 1.0 mg/kg/injection, schedule: Q01DX009 (ip), vehicle: water): 124, 131, 140, 142 % of control; T/C (T/C endpoint: mean survival time, dose: 2.0 mg/kg/injection, schedule: Q01DX009 (ip), vehicle: saline): 138 % of control; T/C (T/C endpoint: mean survival time, dose: 2.0 mg/kg/injection, schedule: Q01DX009 (ip), vehicle: water): 101, 113, 117 [9 of 10 alive], 140 % of control; T/C (T/C endpoint: mean survival time, dose: 2.0 mg/kg/injection, schedule: Q01DX009 (sc), vehicle: acid diluted with saline): 138 % of control; survivor count (T/C endpoint: mean survival time, dose: 2.0 mg/kg/injection, schedule: Q03HX008 (ip), vehicle: acid diluted with saline): 0 of 10; survivor count (T/C endpoint: mean survival time, dose: 2.0 mg/kg/injection, schedule: Q03HX016 (ip), vehicle: acid diluted with saline): 0 of 10; T/C (T/C endpoint: mean survival time, dose: 2.0 mg/kg/injection, schedule: Q04DX003 (ip), vehicle: acid diluted with saline): 127 % of control; survivor count (T/C endpoint: mean survival time, dose: 4.0 mg/kg/injection, schedule: Q01DX009 (ip), vehicle: saline): 4 of 10; survivor count (T/C endpoint: mean survival time, dose: 4.0 mg/kg/injection, schedule: Q01DX009 (ip), vehicle: water): 4 of 10; survivor count (T/C endpoint: mean survival time, dose: 4.0 mg/kg/injection, schedule: Q01DX009 (oral), vehicle: saline): 6 of 10; survivor count (T/C endpoint: mean survival time, dose: 4.0 mg/kg/injection, schedule: Q01DX009 (sc), vehicle: saline): 5 of 10; survivor count (T/C endpoint: mean survival time, dose: 8.0 mg/kg/injection, schedule: Q01DX001 (ip), vehicle: acid diluted with saline): 2 of 10; survivor count (T/C endpoint: mean survival time, dose: 8.0 mg/kg/injection, schedule: Q01DX001 (oral), vehicle: acid diluted with saline): 6 of 10; survivor count (T/C endpoint: mean survival time, dose: 8.0 mg/kg/injection, schedule: Q01DX001 (sc), vehicle: acid diluted with saline): 5 of 10; survivor count (T/C endpoint: mean survival time, dose: 8.0 mg/kg/injection, schedule: Q01DX009 (ip), vehicle: saline): 0 of 10; survivor count (T/C endpoint: mean survival time, dose: 8.0 mg/kg/injection, schedule: Q01DX009 (ip), vehicle: water): 0 of 10; survivor count (T/C endpoint: mean survival time, dose: 8.0 mg/kg/injection, schedule: Q01DX009 (oral), vehicle: acid diluted with saline): 0 of 10; survivor count (T/C endpoint: mean survival time, dose: 8.0 mg/kg/injection, schedule: Q01DX009 (oral), vehicle: saline): 0 of 10; survivor count (T/C endpoint: mean survival time, dose: 8.0 mg/kg/injection, schedule: Q01DX009 (sc), vehicle: saline): 0 of 10; survivor count (T/C endpoint: mean survival time, dose: 8.0 mg/kg/injection, schedule: Q08DX002 (ip), vehicle: acid diluted with saline): 3 of 10; survivor count (T/C endpoint: mean survival time, dose: 16.0 mg/kg/injection, schedule: Q01DX001 (ip), vehicle: acid diluted with saline): 1 of 10; survivor count (T/C endpoint: mean survival time, dose: 16.0 mg/kg/injection, schedule: Q01DX001 (iv), vehicle: acid diluted with saline): 0 of 10; survivor count (T/C endpoint: mean survival time, dose: 16.0 mg/kg/injection, schedule: Q01DX001 (oral), vehicle: acid diluted with saline): 0 of 10; survivor count (T/C endpoint: mean survival time, dose: 16.0 mg/kg/injection, schedule: Q01DX001 (sc), vehicle: acid diluted with saline): 0 of 10; survivor count (T/C endpoint: mean survival time, dose: 16.0 mg/kg/injection, schedule: Q08DX002 (ip), vehicle: acid diluted with saline): 0 of 10; survivor count (T/C endpoint: mean survival time, dose: 32.0 mg/kg/injection, schedule: Q01DX001 (oral), vehicle: acid diluted with saline): 0 of 10; T/C (T/C endpoint: mean survival time, dose: 250.0 micrograms/kg/injection, schedule: Q03HX024 (ip), vehicle: acid diluted with saline): 130 % of control; T/C (T/C endpoint: mean survival time, dose: 500.0 micrograms/kg/injection, schedule: Q03HX024 (ip), vehicle: acid diluted with saline): 136 % of control; survivor count (T/C endpoint: mean survival time, dose: 2000.0 micrograms/kg/injection, schedule: Q03HX024 (ip), vehicle: acid diluted with saline): 0 of 10; survivor count (T/C endpoint: median survival time, dose: 8.0 mg/kg/injection, schedule: Q04DX003 (ip), vehicle: saline): 1 of 8; survivor count (T/C endpoint: median survival time, dose: 16.0 mg/kg/injection, schedule: Q04DX003 (ip), vehicle: saline): 0 of 8

**Q.** What does the source list for CN(CCCCN(C)P(=O)(N1CC1)N1CC1)P(=O)(N1CC1)N1CC1?
**A.** survivor count (T/C endpoint: mean survival time, dose: 200.0 mg/kg/injection, schedule: Q01DX001 (ip), vehicle: carboxymethylcellulose (CMC)): 0 of 6; survivor count (T/C endpoint: mean survival time, dose: 400.0 mg/kg/injection, schedule: Q01DX001 (ip), vehicle: carboxymethylcellulose (CMC)): 0 of 6

**Q.** For CCN1/C(=C/C=C/C=C/c2sc3ccccc3[n+]2CC)Sc2ccccc21, which survivor count (T/C endpoint: mean survival time, dose: 0.16 mg/kg/injection, schedule: Q01DX009 (ip), vehicle: saline) is on record?
**A.** 6 of 6

**Q.** And the survivor count (T/C endpoint: mean survival time, dose: 0.64 mg/kg/injection, schedule: Q01DX009 (ip), vehicle: saline)?
**A.** 4 of 6

**Q.** And the survivor count (T/C endpoint: mean survival time, dose: 0.78 mg/kg/injection, schedule: Q01DX009 (ip), vehicle: saline)?
**A.** 1 of 3

**Q.** And the survivor count (T/C endpoint: mean survival time, dose: 1.56 mg/kg/injection, schedule: Q01DX009 (ip), vehicle: saline)?
**A.** 0 of 3

**Q.** And the survivor count (T/C endpoint: mean survival time, dose: 1.6 mg/kg/injection, schedule: Q01DX001 (ip), vehicle: saline)?
**A.** 2 of 6

**Q.** What about the survivor count (T/C endpoint: mean survival time, dose: 3.2 mg/kg/injection, schedule: Q01DX001 (ip), vehicle: saline) of the same compound?
**A.** 1 of 6

**Q.** What about the survivor count (T/C endpoint: mean survival time, dose: 6.25 mg/kg/injection, schedule: Q01DX009 (ip), vehicle: saline) of the same compound?
**A.** 0 of 3

**Q.** What about the survivor count (T/C endpoint: mean survival time, dose: 6.4 mg/kg/injection, schedule: Q01DX001 (ip), vehicle: saline) of the same compound?
**A.** 1 of 6

**Q.** And the survivor count (T/C endpoint: mean survival time, dose: 9.5 mg/kg/injection, schedule: Q01DX001 (ip), vehicle: other)?
**A.** 2 of 6

**Q.** And the survivor count (T/C endpoint: mean survival time, dose: 12.5 mg/kg/injection, schedule: Q01DX009 (ip), vehicle: saline)?
**A.** 0 of 3

**Q.** And the survivor count (T/C endpoint: mean survival time, dose: 19.0 mg/kg/injection, schedule: Q01DX001 (ip), vehicle: other)?
**A.** 4 of 6

**Q.** What about the survivor count (T/C endpoint: mean survival time, dose: 25.0 mg/kg/injection, schedule: Q01DX009 (ip), vehicle: saline) of the same compound?
**A.** 0 of 3 and 0 of 6

**Q.** And the survivor count (T/C endpoint: mean survival time, dose: 38.0 mg/kg/injection, schedule: Q01DX001 (ip), vehicle: other)?
**A.** 0 of 6

**Q.** And the survivor count [1]?
**A.** 0 of 6

**Q.** What about the survivor count (T/C endpoint: mean survival time, dose: 100.0 mg/kg/injection, schedule: Q01DX009 (ip), vehicle: saline) of the same compound?
**A.** 0 of 6

**Q.** What about the survivor count (T/C endpoint: mean survival time, dose: 200.0 mg/kg/injection, schedule: Q01DX009 (ip), vehicle: saline) of the same compound?
**A.** 0 of 6

**Q.** What about the survivor count (T/C endpoint: mean survival time, dose: 400.0 mg/kg/injection, schedule: Q01DX009 (ip), vehicle: saline) of the same compound?
**A.** 0 of 6

**Q.** Which survivor count (T/C endpoint: mean survival time, dose: 400.0 mg/kg/injection, schedule: Q04DX003 (ip), vehicle: saline with Tween-80) does the source give for CC(C)C12CCC(=O)C=C1CCCC2OC(=O)c1ccccc1C(=O)O (stereo not drawn) here?
**A.** 0 of 6

**Q.** With O=C(Cl)C1C2C=CC(C2)C1C(=O)Cl (stereo not drawn) as the compound, how does the survivor count (T/C endpoint: mean survival time, dose: 200.0 mg/kg/injection, schedule: Q01DX001 (ip), vehicle: saline) read?
**A.** 0 of 4

**Q.** And the survivor count (T/C endpoint: mean survival time, dose: 400.0 mg/kg/injection, schedule: Q01DX001 (ip), vehicle: saline)?
**A.** 0 of 4

**Q.** For NC(CCl)=NCCCCN=C(N)CCl, which survivor count [1] is on record?
**A.** 0 of 3

**Q.** And the survivor count (T/C endpoint: mean survival time, dose: 50.0 mg/kg/injection, schedule: Q04DX002 (ip), vehicle: saline)?
**A.** 1 of 3

**Q.** What about the survivor count (T/C endpoint: mean survival time, dose: 100.0 mg/kg/injection, schedule: Q04DX002 (ip), vehicle: saline) of the same compound?
**A.** 0 of 3

**Q.** And the survivor count (T/C endpoint: mean survival time, dose: 200.0 mg/kg/injection, schedule: Q04DX002 (ip), vehicle: saline)?
**A.** 0 of 3

**Q.** And the survivor count (T/C endpoint: mean survival time, dose: 400.0 mg/kg/injection, schedule: Q04DX002 (ip), vehicle: saline)?
**A.** 0 of 3

**Q.** With C[C@@H]1C[C@H]2[C@@H]3CCC4=CC(=O)C=C[C@]4(C)[C@@]3(F)[C@@H](O)C[C@]2(C)[C@@]1(O)C(=O)CO as the compound, how does the survivor count (T/C endpoint: mean survival time, dose: 75.0 mg/kg/injection, schedule: Q01DX009 (ip), vehicle: saline) read?
**A.** 5 of 6

**Q.** And the survivor count (T/C endpoint: mean survival time, dose: 115.0 mg/kg/injection, schedule: Q01DX009 (ip), vehicle: saline)?
**A.** 5 of 6

**Q.** And the survivor count (T/C endpoint: mean survival time, dose: 150.0 mg/kg/injection, schedule: Q04DX003 (ip), vehicle: saline with Tween-80)?
**A.** 3 of 6

**Q.** What about the survivor count (T/C endpoint: mean survival time, dose: 170.0 mg/kg/injection, schedule: Q01DX009 (ip), vehicle: saline) of the same compound?
**A.** 6 of 6

**Q.** And the survivor count (T/C endpoint: mean survival time, dose: 200.0 mg/kg/injection, schedule: Q04DX003 (ip), vehicle: Klucel (hydroxypropylcellulose) (HPC))?
**A.** 6 of 6

**Q.** And the survivor count (T/C endpoint: mean survival time, dose: 400.0 mg/kg/injection, schedule: Q04DX003 (ip), vehicle: Klucel (hydroxypropylcellulose) (HPC))?
**A.** 5 of 6

From PubChem BioAssay AID248 (DTP/NCI, 2004)
